# Results from PMC6544635.
# Chains of the proteins cited; added tags and fusions are not shown. A line that says so, or that is headed by a name, gives the form on record, which may keep a tag or linker.
# MdRAV1-His (Malus domestica), one chain, as listed by the source: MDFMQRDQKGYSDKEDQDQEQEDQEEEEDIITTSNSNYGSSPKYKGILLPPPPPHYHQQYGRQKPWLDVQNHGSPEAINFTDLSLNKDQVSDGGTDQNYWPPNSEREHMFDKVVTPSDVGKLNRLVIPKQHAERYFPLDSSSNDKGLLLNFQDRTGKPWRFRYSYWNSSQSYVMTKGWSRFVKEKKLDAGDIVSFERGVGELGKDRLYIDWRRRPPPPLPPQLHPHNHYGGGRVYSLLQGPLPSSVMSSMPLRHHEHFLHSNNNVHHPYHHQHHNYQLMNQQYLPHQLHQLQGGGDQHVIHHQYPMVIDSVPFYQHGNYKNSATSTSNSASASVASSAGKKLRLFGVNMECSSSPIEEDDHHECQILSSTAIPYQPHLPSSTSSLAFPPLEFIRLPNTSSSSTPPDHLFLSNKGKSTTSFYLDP
# Test system: MdRAV1-His (Malus domestica)
# Test: EMSA
# Conditions: EMSA as described by Xie et al. (ref 61); pH and temperature not given; recombinant protein; protein details: His (pET-32a(+) vector); label: biotin
row,Sequence,binding result
1,TATAATTGTACCAACAACTTATTTATAGT (double strand) [MdABI4 promoter probe P1],binds
2,AATTATTCAAGAACAACAAAATAAGTAAAA (double strand) [MdABI3 promoter probe P1],binds

# For at least one entry, the source does not settle the construct or the ends of the probe.
